Test results reported in patent US8501446B2 (Vertex Pharmaceuticals Incorporated, priority 2004, dated 2013).
The match of structure and compound is tentative.

Sequences of proteins named here, by UniProt entry; tags and fusion partners are left off. Residues count along the entry.
UniProt P52333, whole entry: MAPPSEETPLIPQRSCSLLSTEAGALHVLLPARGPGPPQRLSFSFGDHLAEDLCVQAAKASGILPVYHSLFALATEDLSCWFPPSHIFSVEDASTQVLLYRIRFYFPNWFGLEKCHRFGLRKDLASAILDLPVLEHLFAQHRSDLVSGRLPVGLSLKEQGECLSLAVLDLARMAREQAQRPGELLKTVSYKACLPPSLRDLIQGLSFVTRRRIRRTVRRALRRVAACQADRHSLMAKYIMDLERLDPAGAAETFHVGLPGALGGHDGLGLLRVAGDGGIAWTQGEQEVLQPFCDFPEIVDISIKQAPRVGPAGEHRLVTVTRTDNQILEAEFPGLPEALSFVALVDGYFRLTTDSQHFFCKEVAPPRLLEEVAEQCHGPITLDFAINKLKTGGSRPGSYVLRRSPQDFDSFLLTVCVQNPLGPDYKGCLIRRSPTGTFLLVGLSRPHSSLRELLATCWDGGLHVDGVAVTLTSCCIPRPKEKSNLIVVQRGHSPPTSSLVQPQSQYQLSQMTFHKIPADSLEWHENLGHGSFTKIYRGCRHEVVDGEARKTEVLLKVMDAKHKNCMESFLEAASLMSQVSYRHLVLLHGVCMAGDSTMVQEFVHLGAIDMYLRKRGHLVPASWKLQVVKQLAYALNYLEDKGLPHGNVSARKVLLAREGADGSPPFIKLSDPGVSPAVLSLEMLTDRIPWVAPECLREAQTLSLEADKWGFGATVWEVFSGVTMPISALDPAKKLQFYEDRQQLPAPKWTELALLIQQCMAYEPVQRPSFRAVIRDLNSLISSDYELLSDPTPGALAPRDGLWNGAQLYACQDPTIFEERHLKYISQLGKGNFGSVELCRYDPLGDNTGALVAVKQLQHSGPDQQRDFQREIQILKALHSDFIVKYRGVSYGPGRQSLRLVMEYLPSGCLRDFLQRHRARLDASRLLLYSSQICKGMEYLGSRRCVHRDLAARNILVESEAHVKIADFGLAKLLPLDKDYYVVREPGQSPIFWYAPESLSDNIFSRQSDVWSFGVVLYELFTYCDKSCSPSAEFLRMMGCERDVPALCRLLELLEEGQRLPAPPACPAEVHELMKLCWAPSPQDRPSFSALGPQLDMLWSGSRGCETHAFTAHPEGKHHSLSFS
UniProt O60674, whole entry: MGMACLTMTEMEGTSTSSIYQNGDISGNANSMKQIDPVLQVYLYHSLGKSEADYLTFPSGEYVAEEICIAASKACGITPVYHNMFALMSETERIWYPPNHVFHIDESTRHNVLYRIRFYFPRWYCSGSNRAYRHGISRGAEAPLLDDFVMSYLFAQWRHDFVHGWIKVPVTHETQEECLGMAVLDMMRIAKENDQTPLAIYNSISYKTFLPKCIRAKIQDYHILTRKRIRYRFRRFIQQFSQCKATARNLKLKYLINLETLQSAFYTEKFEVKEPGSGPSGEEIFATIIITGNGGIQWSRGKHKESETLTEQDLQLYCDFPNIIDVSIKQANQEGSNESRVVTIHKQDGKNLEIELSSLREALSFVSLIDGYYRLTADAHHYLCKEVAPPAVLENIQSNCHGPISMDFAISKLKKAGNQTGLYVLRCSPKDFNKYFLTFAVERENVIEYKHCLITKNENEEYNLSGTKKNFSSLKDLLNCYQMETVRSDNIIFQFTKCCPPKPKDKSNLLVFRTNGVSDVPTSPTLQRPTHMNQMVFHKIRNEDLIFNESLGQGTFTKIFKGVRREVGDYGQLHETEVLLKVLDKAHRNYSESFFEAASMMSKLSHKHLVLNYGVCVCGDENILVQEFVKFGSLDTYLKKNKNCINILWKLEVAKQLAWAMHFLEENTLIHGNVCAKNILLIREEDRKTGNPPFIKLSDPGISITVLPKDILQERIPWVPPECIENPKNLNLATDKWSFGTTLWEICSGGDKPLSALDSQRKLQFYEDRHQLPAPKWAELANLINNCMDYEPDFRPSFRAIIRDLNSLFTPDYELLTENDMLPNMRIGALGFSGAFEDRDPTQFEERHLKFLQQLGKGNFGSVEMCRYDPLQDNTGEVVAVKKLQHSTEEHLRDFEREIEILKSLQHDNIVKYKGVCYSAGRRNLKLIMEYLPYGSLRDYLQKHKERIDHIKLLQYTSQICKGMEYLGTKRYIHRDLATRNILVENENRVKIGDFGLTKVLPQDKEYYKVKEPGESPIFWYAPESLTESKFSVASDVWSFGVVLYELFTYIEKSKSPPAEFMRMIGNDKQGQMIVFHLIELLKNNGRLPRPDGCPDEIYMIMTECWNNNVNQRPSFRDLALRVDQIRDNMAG
UniProt Q13464, whole entry: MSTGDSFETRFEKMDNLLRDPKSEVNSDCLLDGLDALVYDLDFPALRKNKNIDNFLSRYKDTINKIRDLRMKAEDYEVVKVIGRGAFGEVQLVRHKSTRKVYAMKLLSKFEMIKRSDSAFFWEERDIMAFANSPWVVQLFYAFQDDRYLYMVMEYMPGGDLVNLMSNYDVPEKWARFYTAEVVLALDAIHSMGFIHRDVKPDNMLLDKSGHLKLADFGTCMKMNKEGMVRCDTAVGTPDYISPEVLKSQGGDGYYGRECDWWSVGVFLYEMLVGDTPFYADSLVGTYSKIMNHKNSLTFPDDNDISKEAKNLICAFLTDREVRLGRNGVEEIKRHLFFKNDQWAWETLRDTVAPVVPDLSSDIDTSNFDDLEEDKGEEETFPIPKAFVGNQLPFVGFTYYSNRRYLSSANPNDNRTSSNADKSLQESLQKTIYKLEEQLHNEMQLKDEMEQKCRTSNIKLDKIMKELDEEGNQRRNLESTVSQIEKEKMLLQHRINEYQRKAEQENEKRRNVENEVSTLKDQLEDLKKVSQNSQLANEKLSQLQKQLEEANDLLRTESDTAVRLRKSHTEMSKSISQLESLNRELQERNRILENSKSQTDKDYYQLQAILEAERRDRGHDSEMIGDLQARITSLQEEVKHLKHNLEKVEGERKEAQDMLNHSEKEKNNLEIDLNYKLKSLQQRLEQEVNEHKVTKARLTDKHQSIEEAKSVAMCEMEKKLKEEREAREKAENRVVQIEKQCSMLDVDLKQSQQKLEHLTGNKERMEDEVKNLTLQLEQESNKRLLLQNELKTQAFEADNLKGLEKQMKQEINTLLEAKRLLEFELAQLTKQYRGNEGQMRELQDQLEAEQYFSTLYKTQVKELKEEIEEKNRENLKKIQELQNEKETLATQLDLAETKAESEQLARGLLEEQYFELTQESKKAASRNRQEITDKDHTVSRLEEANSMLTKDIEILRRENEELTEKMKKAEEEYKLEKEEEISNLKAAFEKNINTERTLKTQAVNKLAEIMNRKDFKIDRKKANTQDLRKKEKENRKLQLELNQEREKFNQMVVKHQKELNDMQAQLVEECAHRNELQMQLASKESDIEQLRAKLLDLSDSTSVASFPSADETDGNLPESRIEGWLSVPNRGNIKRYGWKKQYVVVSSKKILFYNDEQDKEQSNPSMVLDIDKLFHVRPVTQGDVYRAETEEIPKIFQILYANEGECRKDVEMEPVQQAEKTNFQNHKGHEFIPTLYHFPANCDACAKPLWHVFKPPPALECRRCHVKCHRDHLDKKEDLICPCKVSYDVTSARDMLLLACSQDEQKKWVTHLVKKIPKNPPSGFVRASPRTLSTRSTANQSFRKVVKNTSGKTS
UniProt Q13464, 6-553 limits assumed: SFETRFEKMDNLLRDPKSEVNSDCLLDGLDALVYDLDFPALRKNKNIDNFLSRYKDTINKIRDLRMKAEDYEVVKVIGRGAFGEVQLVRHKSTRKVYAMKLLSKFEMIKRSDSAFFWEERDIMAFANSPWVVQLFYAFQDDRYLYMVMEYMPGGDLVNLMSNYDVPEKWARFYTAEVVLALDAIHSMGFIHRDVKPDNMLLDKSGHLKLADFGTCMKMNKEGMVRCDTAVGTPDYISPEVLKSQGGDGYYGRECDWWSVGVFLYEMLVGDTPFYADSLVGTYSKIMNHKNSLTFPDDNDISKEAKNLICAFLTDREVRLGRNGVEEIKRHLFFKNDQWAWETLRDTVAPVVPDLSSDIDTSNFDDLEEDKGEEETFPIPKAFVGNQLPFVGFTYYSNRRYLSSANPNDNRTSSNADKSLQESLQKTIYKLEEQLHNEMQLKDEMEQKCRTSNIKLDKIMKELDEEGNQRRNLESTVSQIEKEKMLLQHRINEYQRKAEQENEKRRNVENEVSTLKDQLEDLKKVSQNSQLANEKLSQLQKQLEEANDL
UniProt O14965, whole entry: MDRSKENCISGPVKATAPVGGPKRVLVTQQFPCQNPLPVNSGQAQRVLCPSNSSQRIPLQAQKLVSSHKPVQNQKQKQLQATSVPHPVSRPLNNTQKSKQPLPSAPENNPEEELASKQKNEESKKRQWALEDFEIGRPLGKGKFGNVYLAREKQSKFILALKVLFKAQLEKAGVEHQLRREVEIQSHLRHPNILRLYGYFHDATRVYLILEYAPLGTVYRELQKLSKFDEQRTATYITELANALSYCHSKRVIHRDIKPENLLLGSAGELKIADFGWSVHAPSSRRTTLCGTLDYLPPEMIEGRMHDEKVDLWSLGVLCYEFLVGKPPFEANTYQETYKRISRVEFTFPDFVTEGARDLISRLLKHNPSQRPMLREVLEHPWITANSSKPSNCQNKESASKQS
UniProt Q9UQB9, whole entry: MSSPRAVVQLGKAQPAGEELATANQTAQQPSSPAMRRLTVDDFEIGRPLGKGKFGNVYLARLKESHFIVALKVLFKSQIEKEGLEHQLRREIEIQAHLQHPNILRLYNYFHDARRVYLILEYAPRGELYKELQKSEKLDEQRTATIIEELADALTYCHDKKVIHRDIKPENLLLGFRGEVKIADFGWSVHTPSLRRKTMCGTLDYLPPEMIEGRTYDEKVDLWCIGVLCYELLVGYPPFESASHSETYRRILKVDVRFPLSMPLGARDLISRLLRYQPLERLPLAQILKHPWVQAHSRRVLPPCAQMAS
UniProt Q96GD4, whole entry: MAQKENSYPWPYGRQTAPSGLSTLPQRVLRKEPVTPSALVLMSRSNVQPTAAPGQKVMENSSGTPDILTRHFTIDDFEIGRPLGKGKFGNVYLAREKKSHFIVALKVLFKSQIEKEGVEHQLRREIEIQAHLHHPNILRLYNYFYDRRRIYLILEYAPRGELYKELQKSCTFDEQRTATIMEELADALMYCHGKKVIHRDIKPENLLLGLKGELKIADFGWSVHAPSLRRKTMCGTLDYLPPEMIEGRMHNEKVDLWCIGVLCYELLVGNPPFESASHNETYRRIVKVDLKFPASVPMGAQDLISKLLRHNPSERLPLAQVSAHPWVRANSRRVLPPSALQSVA

How the values were obtained:
JAK3 = JAK3 (Homo sapiens, UniProt P52333); assay: JAK3 inhibition assay (standard radioactive enzyme assay); type: biochemical; conditions: read-out: JAK3 Ki; Ki(app); average Ki if more than one value determined
Description: (§1) Compounds were screened for their ability to inhibit JAK3 using a standard radioactive enzyme assay. 1.5 μL/well of a DMSO stock containing serial dilutions of a compound of the present invention (concentrations ranging from 667 μM to 46 nM) was placed in a 96 well polycarbonate plate. 50 μL per well of kinase buffer (100 mM HEPES (pH 7.4), 10 mM MgCl2, 25 mM NaCl, 1 mM DTT, and 0.01% bovine serum albumin (BSA)) containing 2 μM poly(Glu)4Tyr and 10 μM ATP was also added to the plate. To initiate the reaction, 50 μL kinase buffer containing 2 nM JAK3 enzyme was added. Final ATP concentration was 5 μM [γ-^33P] ATP (200 μCi ^33P ATP/μmol ATP (Perkin Elmer, Cambridge, Mass.). After 20 minutes at room temperature (25° C.), the reaction was stopped by adding 50 μL 20% trichloroacetic acid (TCA)/0.4 mM ATP to each well. The entire content of each well was then transferred to a 96 well glass fiber filter plate using a TomTek Cell Harvester. After washing, 60 μL scintillation fluid was added and ^33P incorporation detected using a Perkin Elmer TopCount. After removing mean background values for all of the data points the data was fit using Prism software to obtain a Ki(app). Inhibition of JAK2 was measured as above except that final poly(Glu)4Tyr concentration was 15 μM and final ATP concentration was 12 μM.

JAK2 = JAK2 (Homo sapiens, UniProt O60674); assay: JAK2 inhibition assay (radioactive enzyme assay, as for JAK3); type: biochemical; conditions: read-out: JAK2 Ki; Ki(app); average Ki if more than one value determined
Description: as §1

ROCK = ROCK (Homo sapiens, UniProt Q13464); assay: ROCK inhibition assay, standard radioactive enzyme assay ("33P"); type: biochemical; conditions: read-out: ROCK 33P Ki, Ki(app)
Description: Some compounds were screened for their ability to inhibit ROCK using a standard radioactive enzyme assay. Assays were carried out in a solution containing 100 mM HEPES (pH 7.5), 10 mM MgCl2, 25 mM NaCl, 2 mM DTT, and 1.5% DMSO. Final substrate concentrations in the assay were 13 μM [γ-^33P] ATP (25 mCi ^33P ATP/mmol ATP, Perkin Elmer, Cambridge, Mass./Sigma Chemicals, St Louis, Mo.) and 27 μM Myelin Basic Protein (MBP). Final enzyme concentration in the assay was 5 nM ROCK. Assays were carried out at room temperature. 1.5 μl of DMSO stock containing serial dilutions of the compound of the present invention (concentrations ranging from 10 μM to 2.6 nM) was placed in a 96 well plate. 50 μl of Solution 1 (100 mM HEPES (pH 7.5), 10 mM MgCl2, […]) was added to the plate. The reaction was initiated by addition of 50 μl of Solution 2 (100 mM HEPES (pH 7.5), 10 mM MgCl2, 4 mM DTT, […] and 10 nM ROCK). After 2 hours the reaction was quenched with 50 μL of 30% trichloroacetic acid (TCA, Fisher) containing 9 mM ATP. Transfer of 140 μL of the quenched reaction to a glass fiber filter plate (Corning, Cat. No. 3511) was followed by washing 3 times with 5% TCA. 50 μL of Optima Gold scintillation fluid (Perkin Elmer) was added and the plates were counted on a Top Count (Perkin Elmer). After removing mean background values for all of the data points the data was fit using Prism software to obtain a Ki(app).

[1] = biological target: full length Aurora-A (AA 1-403) (Homo sapiens, UniProt O14965); assay: Aurora-A inhibition assay, standard coupled enzyme system; type: biochemical; conditions: read-out: Aurora A Ki; average Ki if more than one value determined
Description: (§2) Compounds were screened for their ability to inhibit full length Aurora-A (AA 1-403) activity using a standard coupled enzyme system (Fox et al., Protein Sci. 7, pp. 2249 (1998)). Reactions were carried out in a solution containing 100 mM HEPES (pH 7.5), 10 mM MgCl2, 25 mM NaCl, 300 μM NADH, 1 mM DTT and 3% DMSO. Final substrate concentrations in the assay were 200 μM ATP (Sigma Chemicals, St Louis, Mo.) and 800 μM peptide (LRRASLG, American Peptide, Sunnyvale, Calif.). Reactions were carried out at 30° C. and 35 nM Aurora-A. Final concentrations of the components of the coupled enzyme system were 2.5 mM phosphoenolpyruvate, 200 μM NADH, 60 μg/ml pyruvate kinase and 20 μg/ml lactate dehydrogenase.
An assay stock buffer solution was prepared containing all of the reagents listed above with the exception of ATP and the test compound of interest. The assay stock buffer solution (60 μl) was incubated in a 96 well plate with 2 μl of the test compound of interest at final concentrations spanning 0.002 μM to 30 μM at 30° C. for 10 min. Typically, a 12 point titration was conducted by preparing serial dilutions (from 1 mM compound stocks) with DMSO of the test compounds in daughter plates. The reaction was initiated by the addition of 5 μl of ATP (final concentration 200 μM). Rates of reaction were obtained using a Molecular Devices Spectramax plate reader (Sunnyvale, Calif.) over 10 min at 30° C. The Ki values were determined from the rate data as a function of inhibitor concentration using computerized nonlinear regression (Prism 3.0, Graphpad Software, San Diego, Calif.). Aurora-C activity was screened in a similar manner using Aurora-C protein. Aurora-B activity was screened using a radioactive assay, such as described in Examples 1 and 2, but using Aurora-B protein.

ROCK I (AA 6-553) = ROCK I (AA 6-553) (Homo sapiens, UniProt Q13464); assay: ROCK inhibition assay, standard coupled enzyme system ("Enzyme"); type: biochemical; conditions: read-out: ROCK Enzyme Ki; enzyme-linked assay
Description: Compounds were screened for their ability to inhibit ROCK I (AA 6-553) activity using a standard coupled enzyme system (Fox et al. (1998) Protein Sci. 7, 2249). Reactions were carried out in a solution containing 100 mM HEPES (pH 7.5), 10 mM MgCl2, 25 mM NaCl, 2 mM DTT and 1.5% DMSO. Final substrate concentrations in the assay were 45 μM ATP (Sigma Chemicals, St Louis, Mo.) and 200 μM peptide (American Peptide, Sunnyvale, Calif.). Reactions were carried out at 30° C. and 45 nM ROCK L. Final concentrations of the components of the coupled enzyme system were 2.5 mM phosphoenolpyruvate, 350 μM NADH, 30 μg/ml pyruvate kinase and 10 μg/ml lactate dehydrogenase.

Aurora-C = Aurora-C (Homo sapiens, UniProt Q9UQB9); assay: Aurora-C inhibition assay, coupled enzyme system as for Aurora-A; conditions: read-out: Aurora C Ki; average Ki if more than one value determined
Description: as §2
An assay stock buffer solution was prepared containing all of the reagents listed above with the exception of ATP and the test compound of interest. The assay stock buffer solution (60 μl) was incubated in a 96 well plate with 2 μl of the test compound of interest at final concentrations spanning 0.002 μM to 30 μM at 30° C. for 10 min. […] Rates of reaction were obtained using a Molecular Devices Spectramax plate reader (Sunnyvale, Calif.) over 10 min at 30° C. The Ki values were determined from the rate data as a function of inhibitor concentration using computerized nonlinear regression (Prism 3.0, Graphpad Software, San Diego, Calif.). […]

Aurora-B = Aurora-B (Homo sapiens, UniProt Q96GD4); assay: Aurora-B inhibition assay, radioactive assay; conditions: read-out: Aurora B Ki, average Ki if more than one value determined

SMILES	Ki (JAK3)	Ki (JAK2)	Ki (ROCK)	Ki [1]	Ki (ROCK I (AA 6-553))	Ki (Aurora-C)	Ki (Aurora-B)
c1ccc(CNc2ccnc(-c3c[nH]c4ncccc34)n2)cc1 [Compound 11, Benzyl-[2-(1H-pyrrolo[2,3-b]pyridin-3-yl)-pyrimidin-4-yl]amine]	< 500 nM	< 500 nM	< 500 nM	500 to 5000 nM			
O=C(Cc1ccccc1F)Nc1nccc(-c2c[nH]c3ncccc23)n1			< 500 nM	< 500 nM			
c1ccc(CNc2cc(-c3c[nH]c4ncc(-c5cccnc5)cc34)ncn2)cc1	< 500 nM	< 500 nM	< 500 nM				
c1cnc2[nH]cc(-c3cc(NCC4CCOCC4)ncn3)c2c1	500 to 5000 nM	< 500 nM	500 to 5000 nM				
CCNc1cc(-c2c[nH]c3ncccc23)ncn1	500 to 5000 nM	500 to 5000 nM	< 500 nM				
Nc1cc(-c2c[nH]c3ncccc23)ncn1	500 to 5000 nM	500 to 5000 nM	< 500 nM				
c1ccc(CNc2nccc(-c3c[nH]c4ncccc34)n2)cc1	< 500 nM	< 500 nM	< 500 nM	< 500 nM			
CC(=O)N1[C@H](C)CN(c2nccc(-c3c[nH]c4ncccc34)n2)C[C@@H]1C	< 500 nM	< 500 nM	< 500 nM	500 to 5000 nM			
c1ccc(Nc2cc(-c3c[nH]c4ncccc34)ncn2)cc1	< 500 nM	500 to 5000 nM	< 500 nM				
NC(=O)c1ccc(-c2c[nH]c3ncccc23)cc1	< 500 nM	500 to 5000 nM	500 to 5000 nM				
Clc1ccc(CNc2cc(-c3c[nH]c4ncccc34)ncn2)cc1	< 500 nM	< 500 nM	< 500 nM	500 to 5000 nM			
C[C@@H]1CN(c2nccc(-c3c[nH]c4ncccc34)n2)C[C@H](C)N1	< 500 nM	500 to 5000 nM	< 500 nM				
COc1cc(-c2c[nH]c3ncccc23)ccc1O	500 to 5000 nM	500 to 5000 nM	< 500 nM				
Fc1cccc(Nc2cc(-c3c[nH]c4ncccc34)ncn2)c1F	< 500 nM	< 500 nM	500 to 5000 nM	< 500 nM			
COc1cc(-c2c[nH]c3ncccc23)ccc1C#N	500 to 5000 nM	500 to 5000 nM	500 to 5000 nM				
COc1ccc(-c2c[nH]c3ncccc23)cc1-c1cnco1	500 to 5000 nM	500 to 5000 nM	500 to 5000 nM				
CN1CCCC(Oc2cc(-c3c[nH]c4ncccc34)ncn2)C1 (stereo not shown)	> 5000 nM	500 to 5000 nM	< 500 nM				
Fc1cccc(-c2cncnc2-c2c[nH]c3ncccc23)c1F			< 500 nM	500 to 5000 nM			
c1ccc2c(c1)CCN(c1cc(-c3c[nH]c4ncccc34)ncn1)C2	500 to 5000 nM	500 to 5000 nM	500 to 5000 nM				
c1ccc(COc2cccc(-c3c[nH]c4ncccc34)c2)cc1	< 500 nM	500 to 5000 nM	< 500 nM	500 to 5000 nM			
Clc1cc(-c2c[nH]c3ncccc23)ccn1	500 to 5000 nM	500 to 5000 nM	< 500 nM	500 to 5000 nM			
COc1cc(N[C@@H](C)C(=O)NCCNS(C)(=O)=O)nc(-c2c[nH]c3ncc(Cl)cc23)n1				< 500 nM	500 to 5000 nM	500 to 5000 nM	500 to 5000 nM
COc1ccc(-c2c[nH]c3ncccc23)cc1C(N)=O	500 to 5000 nM	500 to 5000 nM	500 to 5000 nM				
COc1cc(-c2c[nH]c3ncccc23)ccc1C(N)=O [Compound 31, 2-Methoxy-4-(1H-pyrrolo[2,3-b]pyridin-3-yl)-benzamide]	< 500 nM	500 to 5000 nM	< 500 nM				
c1ccc(CN2CCC(Nc3cc(-c4c[nH]c5ncccc45)ncn3)CC2)cc1	> 5000 nM	500 to 5000 nM	500 to 5000 nM				
O=C(CCc1ccccc1)Nc1nccc(-c2c[nH]c3ncccc23)n1			< 500 nM	500 to 5000 nM			
COc1ccc(-c2c[nH]c3ncccc23)cc1OC	500 to 5000 nM	> 5000 nM	500 to 5000 nM				
c1cnc2[nH]cc(-c3cc(-c4c[nH]c5ncccc45)ncn3)c2c1	500 to 5000 nM	< 500 nM	500 to 5000 nM	500 to 5000 nM			
NC(=O)c1cccc(-c2c[nH]c3ncccc23)c1	500 to 5000 nM	500 to 5000 nM	500 to 5000 nM				
COc1cccc(CC(=O)Nc2cc(-c3c[nH]c4ncccc34)ncn2)c1			< 500 nM				
